# Assay results reported in article doi:10.64898/2025.12.12.693873.
# Read-outs that look alike come from different tables or passages of the source. These are yes or no findings as the source states them, for the method shown. In cells and extracts the contact can be indirect. Some binding calls cover weakened binding; strength is not graded here.
# T1: Aubergine (Aub), endogenous (Drosophila melanogaster (endogenous in ovaries)) (UniProt O76922)
# T1 sequence: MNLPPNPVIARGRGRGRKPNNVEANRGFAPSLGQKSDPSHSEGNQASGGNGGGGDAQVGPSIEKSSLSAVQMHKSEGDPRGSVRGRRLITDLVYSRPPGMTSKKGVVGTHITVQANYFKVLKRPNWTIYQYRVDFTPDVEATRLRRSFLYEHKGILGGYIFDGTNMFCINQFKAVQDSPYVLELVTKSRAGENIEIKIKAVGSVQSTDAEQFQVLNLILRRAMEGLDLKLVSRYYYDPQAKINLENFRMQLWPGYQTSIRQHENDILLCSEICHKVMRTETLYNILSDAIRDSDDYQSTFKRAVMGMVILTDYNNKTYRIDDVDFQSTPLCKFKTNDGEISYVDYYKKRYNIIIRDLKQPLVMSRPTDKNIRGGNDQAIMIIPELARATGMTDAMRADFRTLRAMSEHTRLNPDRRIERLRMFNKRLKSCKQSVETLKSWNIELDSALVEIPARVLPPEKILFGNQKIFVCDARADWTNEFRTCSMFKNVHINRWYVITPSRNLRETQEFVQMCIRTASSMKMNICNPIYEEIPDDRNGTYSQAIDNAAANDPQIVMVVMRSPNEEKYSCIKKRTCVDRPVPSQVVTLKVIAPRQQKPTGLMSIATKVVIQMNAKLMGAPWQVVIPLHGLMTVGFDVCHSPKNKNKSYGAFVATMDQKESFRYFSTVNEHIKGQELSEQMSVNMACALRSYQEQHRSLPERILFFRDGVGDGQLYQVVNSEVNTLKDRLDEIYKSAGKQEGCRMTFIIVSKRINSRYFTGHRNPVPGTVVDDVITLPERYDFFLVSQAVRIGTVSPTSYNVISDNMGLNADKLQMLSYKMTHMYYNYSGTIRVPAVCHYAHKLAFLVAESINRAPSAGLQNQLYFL
# Assays:
# [1] = molecular target: T1, Aubergine (Aub), endogenous (Drosophila melanogaster (endogenous in ovaries)); experiment: co-IP
# [2] = molecular target: T1, Aubergine (Aub), endogenous (Drosophila melanogaster (endogenous in ovaries)); experiment: co-IP; remark: listed apart in the source
binder,measurement,setting,value
"Spindle-E (Spn-E), endogenous (protein, UniProt Q9VF26 1-1434) MDQEVMDFFDFSKELKRVAAAPQGYISSDPRLMATKFKSSEVPNRELIGTDYVSKIVAKEKCLLNGTLLNEQPQGKRIRTLDDLDTDDEGEETEIRRDDEYYKKFRFNLNRDKNLSIYAKREEILAAINAHPVVIIKGETGCGKTTQVPQYILDEAYKSGKYCNIVVTQPRRIAAISIANRVCQEREWQQNTVCSFQVGLHRPNSLEDTRLLYCTTGVLLNNLINNKTLTHYTHIVLDEVHERDQNMDFLLIVVRRLLATNSRHVKIILMSATIDAKELSDYFTTTNSIPPVITTNHRRKHSIEKFYRDQLGSIIWNEEDVGHQQVPEINKHGYRAAVKIIVIIDNMERKAAIQSRQSYDEALRYGAVLIFLPGIYEIDTMAENLTCMLENDPNIKVSIVRCFSLMTPENQRDVFNPPPPGFRKIILTTNIAESSITVPDVSYVIDFCLAKVKVTDTASSFSSLRLTWASKANCRQRAGRVGRLRSGRVYRMVNKHFYQREMPEFGIPEMLRLPLQNSVLKAKVLNMGSPVEILALALSPPNLSDIHNTILLLKEVGALYLTVDGIYDPLDGDLTYWGTIMSRLPLDTRQSRLIILGYIFNMLEEAIIIAAGLSTPGLFAHEGGRSQLGDSFWMHYIFSDGSGSDLVAIWRVYLTYLNIVENGHDQESAIRWAKRFHVSLRSLKEIHLLVQELRVRCTHLGLIPFPVNPNQMMDDREKAIMLKVIIAGAFYPNYFTRSKESCADTDRNIYQTISGHDPCRTVYFTNFKPAYMGELYTRRIKELFQEVRIPPENMDVTFQEGSQKVFVTFKQDDWIEGSSKYVPVSGRVQSEVYKAVMMRQNRVERPIHIMNPSAFMSYVQQRGIGDVIEGRWIPPTKPLNVELLALPSVFDKTISGSITCIVNCGKFFFQPQSFEECIRNMSEIFNAPQQLRNYVTNASAIAKGMMVLAKRDSYFQRATVIRPENQSNRQPMFYVRFIDYGNCTLLPMQLMRLMPRELTEQYGDLPPRVFECRLAMVQPSSVVSGNNRWSTAANDMLKTVAQCGLIDIEVYSLFNNVAAVLIHMRDGIINDKLVELMLCRRSDEDYMSRKDHDFRLRRQESARNLSTAQRQQINEEYLRSCQLPQDHDLPPPPLEKCKTVVMLKGPNSPLECTMRSITRVGLSKRVNIDHLSVNALLLDADPQDHHDHLIVAHEIAESRNGQTLTARGTTLMPNVQGFGALMVMLFSPTMQLKCNKEGTSYVSVLGGLGCDPDTNEPYFAEHDVLINLDVNILEDDVILINQIRYYIDSVFFNFKEENNPAVSVNERVSIYTQLRSLINRLLCKDRRYIERNMSNADFEWETNPELPLPNEPFGKRAIFPMHSLTELQEEDTGRLVQLRENCSMLHKWRNFEGTLPHMTCKLCNQLLESVPQLRLHLLTILHRDREKQIDYCNQ",binding,[1],binds weakly
same,binding,[2],binds
